Results on one molecule are retold here after US20230210816A1 (priority 2020, published 2023).

The test system of one assay is PICV-GFP. The assay can be described thus: microbe, parasite or virus in culture. Particulars: Pichinde virus, Vero C1008, 48 h. In kind it is cell-based.
In assay [1] the test system is LASV and JUNV pseudoviruses. The assay can be described thus: organism not typed. In kind it is cell-based. Particulars: read-out: in vitro IC50 of aripiprazole in combination.

On to `O=C1CCc2ccc(OCCCCN3CCN(c4cccc(Cl)c4Cl)CC3)cc2N1` [aripiprazole], for which the half-inhibitory concentration (IC50) (commonly the concentration needed to halve the response being measured) in the assay on PICV-GFP is 5.4 µM; in assay [1] it was 4.5 to 6 µM.
